The odorant receptor screen of Mainland et al. (2015)
Several values for one entry are separate records, joined by “and”; a condition that tells them apart may be missing. Equal values may be shown once. Some of the results follow. Single wells; the ratio to wells without odorant was worked out here, and repeats agree poorly.

Tests used:
Experiment in all cases: odorant receptor activation (CRE luciferase / Renilla) (fold of no-odor wells); higher = more activation
Conditions in all cases: 100 µM
OR52I1 clone 1521 = system: OR52I1 clone 1521
OR52I2 T132M clone 1324 = system: OR52I2 T132M clone 1324
OR52K1 clone 1163 = system: OR52K1 clone 1163
OR52K2 clone 1211 = system: OR52K2 clone 1211
OR52M1 clone 1143 = system: OR52M1 clone 1143
OR52N1 clone 1191 = system: OR52N1 clone 1191
OR52P1 clone 1221 = system: OR52P1 clone 1221
OR56A1 clone 1114 = system: OR56A1 clone 1114
OR56A3 M51T clone 1128 = system: OR56A3 M51T clone 1128
OR56B1 C106R clone 1168 = system: OR56B1 C106R clone 1168
OR52H1 clone 1702 = system: OR52H1 clone 1702
[1] = system: OR52L1 D73N/C125R/C146R/K168T/W282R clone 1116
OR52L2 R169W clone 1117 = system: OR52L2 R169W clone 1117
OR52N2 M228T clone 1569 = system: OR52N2 M228T clone 1569
[2] = system: OR52N4 T106I/L167R/N218I clone 1127
OR52N5 clone 1238 = system: OR52N5 clone 1238
[3] = system: OR52R1 I129T/N201Y/S245A clone 1705
OR52W1 clone 1234 = system: OR52W1 clone 1234
OR56A4 clone 1724 = system: OR56A4 clone 1724
OR56A5 clone 1708 = system: OR56A5 clone 1708

With `O=C1CCCCC1` [Cyclohexanone] the odorant receptor activation (OR52I1 clone 1521) was 1.25 and 0.951, the odorant receptor activation (OR52I2 T132M clone 1324) was 0.861 and the odorant receptor activation (OR52K1 clone 1163) was 0.632. For the same molecule, the odorant receptor activation (OR52K2 clone 1211) was 0.858, the odorant receptor activation (OR52M1 clone 1143) was 0.979 and the odorant receptor activation (OR52N1 clone 1191) was 0.918. For the same molecule, the odorant receptor activation (OR52P1 clone 1221) was 0.938, the odorant receptor activation (OR56A1 clone 1114) was 0.838 and the odorant receptor activation (OR56A3 M51T clone 1128) was 0.95. It also gave an odorant receptor activation (OR56B1 C106R clone 1168) of 0.761.
`C=CCc1ccc(OC)c(OC)c1` [eugenol methyl ether] was tested, and the odorant receptor activation (OR52H1 clone 1702) was 1.11, the odorant receptor activation (OR52I1 clone 1521) was 1.82 and the odorant receptor activation (OR52I2 T132M clone 1324) was 1.67. The odorant receptor activation (OR52K1 clone 1163) was 1.39, the odorant receptor activation (OR52K2 clone 1211) was 1.48 and the odorant receptor activation [1] was 1.66. It also gave an odorant receptor activation (OR52L2 R169W clone 1117) of 1.52, an odorant receptor activation (OR52M1 clone 1143) of 1.71 and an odorant receptor activation (OR52N1 clone 1191) of 1.51. For the same molecule, the odorant receptor activation (OR52N2 M228T clone 1569) was 0.705, the odorant receptor activation [2] was 1.49 and the odorant receptor activation (OR52N5 clone 1238) was 1.13. For the same molecule, the odorant receptor activation (OR52P1 clone 1221) was 1.45, the odorant receptor activation [3] was 0.744 and the odorant receptor activation (OR52W1 clone 1234) was 0.907. The odorant receptor activation (OR56A1 clone 1114) was 1.05, the odorant receptor activation (OR56A3 M51T clone 1128) was 1.45 and the odorant receptor activation (OR56A4 clone 1724) was 0.68. It also gave an odorant receptor activation (OR56A5 clone 1708) of 0.571 and an odorant receptor activation (OR56B1 C106R clone 1168) of 1.35.
In the case of `CCCCCOC(C)=O` [n-amyl acetate], the odorant receptor activation (OR52H1 clone 1702) was 1.08, the odorant receptor activation (OR52I1 clone 1521) was 1.44 and 0.948 and the odorant receptor activation (OR52I2 T132M clone 1324) was 0.823. The odorant receptor activation (OR52K1 clone 1163) was 0.478, the odorant receptor activation (OR52K2 clone 1211) was 0.899 and the odorant receptor activation (OR52M1 clone 1143) was 0.586. For the same molecule, the odorant receptor activation (OR52N1 clone 1191) was 0.61, the odorant receptor activation (OR52N2 M228T clone 1569) was 0.953 and the odorant receptor activation [2] was 0.98. The odorant receptor activation (OR52N5 clone 1238) was 1.05, the odorant receptor activation (OR52P1 clone 1221) was 0.598 and the odorant receptor activation [3] was 0.95. For the same molecule, the odorant receptor activation (OR52W1 clone 1234) was 1.27, the odorant receptor activation (OR56A1 clone 1114) was 0.576 and the odorant receptor activation (OR56A3 M51T clone 1128) was 0.501. For the same molecule, the odorant receptor activation (OR56A4 clone 1724) was 0.923, the odorant receptor activation (OR56A5 clone 1708) was 1.02 and the odorant receptor activation (OR56B1 C106R clone 1168) was 0.574.
Work on `CC1CCC(C(C)C)C(O)C1` (single isomer, unassigned; (-)) [(-)-menthol] yielded an odorant receptor activation (OR52H1 clone 1702) of 0.866, an odorant receptor activation (OR52I1 clone 1521) of 2.33 and an odorant receptor activation (OR52I2 T132M clone 1324) of 0.999. The odorant receptor activation (OR52K1 clone 1163) was 1.16, the odorant receptor activation (OR52K2 clone 1211) was 0.653 and the odorant receptor activation [1] was 25.5. For the same molecule, the odorant receptor activation (OR52L2 R169W clone 1117) was 19.3, the odorant receptor activation (OR52M1 clone 1143) was 1.01 and the odorant receptor activation (OR52N1 clone 1191) was 1.65. For the same molecule, the odorant receptor activation (OR52N2 M228T clone 1569) was 0.773, the odorant receptor activation [2] was 0.902 and the odorant receptor activation (OR52N5 clone 1238) was 0.556. For the same molecule, the odorant receptor activation (OR52P1 clone 1221) was 0.999, the odorant receptor activation [3] was 1.13 and the odorant receptor activation (OR52W1 clone 1234) was 1.28. It also gave an odorant receptor activation (OR56A1 clone 1114) of 14.9, an odorant receptor activation (OR56A3 M51T clone 1128) of 1.23 and an odorant receptor activation (OR56A4 clone 1724) of 1. It also gave an odorant receptor activation (OR56A5 clone 1708) of 0.986 and an odorant receptor activation (OR56B1 C106R clone 1168) of 0.874.
